The text below walks through data of publication PMC12421412.

Chains of the proteins cited; added tags and fusions are not shown. Residues count along the entry.
UniProt Q92673, residues 82-2214: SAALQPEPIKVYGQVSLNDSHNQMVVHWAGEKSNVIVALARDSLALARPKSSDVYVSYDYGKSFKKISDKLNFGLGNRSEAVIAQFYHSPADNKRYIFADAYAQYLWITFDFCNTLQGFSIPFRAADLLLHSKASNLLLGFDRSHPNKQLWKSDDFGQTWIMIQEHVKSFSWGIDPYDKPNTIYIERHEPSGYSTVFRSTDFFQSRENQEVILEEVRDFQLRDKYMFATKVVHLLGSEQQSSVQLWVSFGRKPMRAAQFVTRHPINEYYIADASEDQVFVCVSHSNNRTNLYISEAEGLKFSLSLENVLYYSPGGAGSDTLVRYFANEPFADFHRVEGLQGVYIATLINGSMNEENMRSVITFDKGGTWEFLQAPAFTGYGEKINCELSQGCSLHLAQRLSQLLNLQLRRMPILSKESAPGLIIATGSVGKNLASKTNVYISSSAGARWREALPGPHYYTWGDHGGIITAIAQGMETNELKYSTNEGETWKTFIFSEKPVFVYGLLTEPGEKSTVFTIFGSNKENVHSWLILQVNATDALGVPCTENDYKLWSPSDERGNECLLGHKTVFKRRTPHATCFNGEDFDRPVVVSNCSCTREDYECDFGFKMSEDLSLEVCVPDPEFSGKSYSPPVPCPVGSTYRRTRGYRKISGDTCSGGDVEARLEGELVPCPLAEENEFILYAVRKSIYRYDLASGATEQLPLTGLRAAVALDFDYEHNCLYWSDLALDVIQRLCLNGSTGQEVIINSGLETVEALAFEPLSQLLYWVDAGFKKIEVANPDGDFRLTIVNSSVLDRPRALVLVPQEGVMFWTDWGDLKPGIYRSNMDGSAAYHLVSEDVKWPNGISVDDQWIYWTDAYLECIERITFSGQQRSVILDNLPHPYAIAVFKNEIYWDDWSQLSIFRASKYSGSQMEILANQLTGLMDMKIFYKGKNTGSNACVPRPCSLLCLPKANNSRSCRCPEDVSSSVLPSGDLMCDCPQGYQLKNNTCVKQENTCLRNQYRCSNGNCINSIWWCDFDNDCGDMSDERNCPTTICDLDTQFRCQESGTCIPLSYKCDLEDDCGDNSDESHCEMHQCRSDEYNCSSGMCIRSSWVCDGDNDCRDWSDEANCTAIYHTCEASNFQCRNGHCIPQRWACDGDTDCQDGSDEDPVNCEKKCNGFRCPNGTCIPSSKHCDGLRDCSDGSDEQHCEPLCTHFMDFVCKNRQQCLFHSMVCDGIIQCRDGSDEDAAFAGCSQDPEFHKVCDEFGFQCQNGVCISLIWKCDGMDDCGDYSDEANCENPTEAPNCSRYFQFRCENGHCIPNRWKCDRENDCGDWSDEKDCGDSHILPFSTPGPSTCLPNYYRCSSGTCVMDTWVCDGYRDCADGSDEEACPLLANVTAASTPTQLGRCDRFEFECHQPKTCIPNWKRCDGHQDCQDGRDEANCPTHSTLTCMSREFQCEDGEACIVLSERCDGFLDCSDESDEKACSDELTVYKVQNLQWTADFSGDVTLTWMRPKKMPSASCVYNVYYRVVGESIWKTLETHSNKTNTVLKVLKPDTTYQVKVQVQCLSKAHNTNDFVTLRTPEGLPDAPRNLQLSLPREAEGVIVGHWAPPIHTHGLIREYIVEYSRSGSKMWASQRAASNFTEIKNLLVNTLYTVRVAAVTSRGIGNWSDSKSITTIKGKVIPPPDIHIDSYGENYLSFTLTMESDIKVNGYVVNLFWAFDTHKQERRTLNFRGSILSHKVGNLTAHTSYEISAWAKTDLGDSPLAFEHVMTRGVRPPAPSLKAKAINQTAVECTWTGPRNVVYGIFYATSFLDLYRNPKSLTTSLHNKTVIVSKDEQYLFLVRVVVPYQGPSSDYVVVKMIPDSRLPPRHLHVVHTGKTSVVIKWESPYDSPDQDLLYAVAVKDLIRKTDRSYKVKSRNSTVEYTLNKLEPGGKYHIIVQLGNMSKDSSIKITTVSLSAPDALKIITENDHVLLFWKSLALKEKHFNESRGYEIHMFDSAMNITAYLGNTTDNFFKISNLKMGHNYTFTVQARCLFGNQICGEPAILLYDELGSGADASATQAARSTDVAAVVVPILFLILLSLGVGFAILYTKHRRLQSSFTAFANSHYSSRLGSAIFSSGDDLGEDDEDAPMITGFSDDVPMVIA
UniProt P05067, residues 18-770: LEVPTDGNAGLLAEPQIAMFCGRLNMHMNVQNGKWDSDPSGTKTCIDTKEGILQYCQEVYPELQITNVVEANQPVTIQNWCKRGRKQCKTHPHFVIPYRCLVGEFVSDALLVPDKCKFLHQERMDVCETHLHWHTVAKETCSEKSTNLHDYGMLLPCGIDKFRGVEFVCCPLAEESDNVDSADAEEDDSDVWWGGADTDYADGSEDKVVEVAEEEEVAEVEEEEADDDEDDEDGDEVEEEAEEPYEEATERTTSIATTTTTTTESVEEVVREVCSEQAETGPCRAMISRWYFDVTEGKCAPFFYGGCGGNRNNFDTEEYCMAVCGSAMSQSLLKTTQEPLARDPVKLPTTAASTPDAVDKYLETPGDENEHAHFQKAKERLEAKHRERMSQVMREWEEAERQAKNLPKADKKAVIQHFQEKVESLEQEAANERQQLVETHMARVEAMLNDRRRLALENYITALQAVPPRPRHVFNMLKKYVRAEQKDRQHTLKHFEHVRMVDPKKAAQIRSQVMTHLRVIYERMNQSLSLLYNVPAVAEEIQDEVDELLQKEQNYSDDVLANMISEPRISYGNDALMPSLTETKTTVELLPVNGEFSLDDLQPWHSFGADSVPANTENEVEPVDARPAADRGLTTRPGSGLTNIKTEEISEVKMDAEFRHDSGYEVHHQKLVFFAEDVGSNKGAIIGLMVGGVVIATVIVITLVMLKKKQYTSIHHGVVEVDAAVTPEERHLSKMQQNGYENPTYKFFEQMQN

This experiment addresses SORLA^WT (human wildtype Sortilin-related receptor with A-type repeats) stably expressed in SH-SY5Y cells (human) (UniProt Q92673). In words: affinity purification with mass spectrometry; SILAC-labelled SH-SY5Y cells overexpressing SORLA; lysis in Tris-HCl pH 8.0, 20 mM NaCl, 0.6% sodium deoxycholate, 0.6% NP-40; immunoprecipitation with goat anti-human SORLA IgG or non-immune IgG on magnetic beads.

No constants are given. Whether binding was seen depends on the method and setting. In cells and extracts the contact can be indirect. These calls come from enrichment with a bait or labelling near it, and not all partners need be listed.

As to “amyloid precursor protein (APP), in SH-SY5Y cell lysate (from UniProt P05067 18-770)”, the binding entry is given as “binds”.
